This experiment addresses PpATG3 (Physcomitrella patens). The experiment is described as follows: two-hybrid; yeast two-hybrid (Clontech); PpATG3 in the bait vector pGBKT7 (BD), PpATG7 or PpATG12 in the prey vector pGADT7 (AD).

Results are given in words; binding and its absence hold for the method and conditions named. A result given as binding can be weak or reduced; the word gives no strength.

With “PpATG7 (from UniProt A0A2K1IFZ5) (enzyme)”, the binding result is “binds”.
Consider PpATG12 (from UniProt A9SPY8), for which the binding result is listed as “binds”.

The values above are taken from publication PMC7513309.
